In publication PMC7819943, “Rice protein-binding microarrays: a tool to detect cis-acting elements near promoter regions in rice” one finds binding signal data, which are given here for 23 sequences.

Some of the results follow.

The test has as its target T1, OsSMF1 (Oryza sativa, UniProt Q6ZLB0 1-436).
T1 sequence: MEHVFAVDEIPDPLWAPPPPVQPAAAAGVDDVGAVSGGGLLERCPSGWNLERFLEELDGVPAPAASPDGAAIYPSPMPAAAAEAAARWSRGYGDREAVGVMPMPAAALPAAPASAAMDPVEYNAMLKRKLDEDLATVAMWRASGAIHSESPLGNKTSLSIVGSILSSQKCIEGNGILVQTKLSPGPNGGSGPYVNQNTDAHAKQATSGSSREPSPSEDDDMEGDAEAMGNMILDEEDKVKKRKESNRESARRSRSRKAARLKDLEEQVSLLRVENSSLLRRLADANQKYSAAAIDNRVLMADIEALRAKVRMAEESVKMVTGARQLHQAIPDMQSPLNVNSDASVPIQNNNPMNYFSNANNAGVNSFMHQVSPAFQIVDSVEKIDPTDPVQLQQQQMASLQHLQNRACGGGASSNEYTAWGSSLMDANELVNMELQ
The test can be described thus: protein-binding microarray (RPBM); PBS, 2% BSA, 51.3 ng/ul salmon testes DNA, 50 uM zinc acetate, 200 nM TF, 25 C, 1 h; high values mean tight binding. The following applies: protein: recombinant; tags: N-terminal polyhistidine and DsRed monomer fusion (pET32a); chain copies: 2; label: CyDye5-dUTP incorporated in the synthesized complementary strand; 3' TTTTT single-stranded linker to array surface; dsDNA, one strand shown. In short, it runs like this: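 Per-feature fluorescence intensity (arbitrary units), read on an Axon 4000B scanner, is the binding signal. Transcription factors carrying an N-terminal polyhistidine tag and DsRed fusion were expressed in E. coli BL21-CodonPlus and purified on Ni–NTA. A custom Agilent array, made double-stranded by primer extension with Cy5-dUTP and blocked with 2% BSA, was incubated with 200 nM protein in PBS, 2% BSA, salmon testes DNA and 50 µM zinc acetate at 25 °C for 1 h and then washed.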
Consider “GCAGGTGGGCCCAGATGGTGGTGTCCCCACCATGTCAGCGCGGAGTCACCTAGTGCAG”, for which the binding signal was 3820 fluorescence intensity (a.u.).
Under “ATTATCAAATCATGACGCAATTATGCTTAAAAGATTCGTCCGGAGTCACCTAGTGCAG” stands 3150 fluorescence intensity (a.u.); under “ATCCTTTTGAGCGTAGACTTATCTATCAAAAGGTGATGAACGGAGTCACCTAGTGCAG”, 3560 fluorescence intensity (a.u.).
In the case of “TCGTGGGACGGCCTGCACATGACGGAGGCGGTGTACCGGACGGAGTCACCTAGTGCAG” it was 3560 fluorescence intensity (a.u.); in that of “AGCCTAGATCCACGGCACCAGGTTCGTCCCTTACCCCTCTCGGAGTCACCTAGTGCAG”, 3830 fluorescence intensity (a.u.).
In the case of “CATTTGCTAATGACGTATTAATTAGGCTTAATAAATTTGTCGGAGTCACCTAGTGCAG” it was 5970 fluorescence intensity (a.u.).
“AAGTGCGTGCCTATGAGGCATCCTAATCAGCATTCAACTTCGGAGTCACCTAGTGCAG”: the binding signal is 4340 fluorescence intensity (a.u.).
Under “TGGATCGGGTGATGTGTTGTCGTTCCCTCGGTGTATCCTTCGGAGTCACCTAGTGCAG” stands 6220 fluorescence intensity (a.u.).
“GACAAACTGCAGCATATACACACACGTACGCACCCGCATCCGGAGTCACCTAGTGCAG”: the binding signal was 6520 fluorescence intensity (a.u.).
Under “CATTATATGCTACCTCTAAAATATTGCACTCAAATAATTACGGAGTCACCTAGTGCAG” stands 3370 fluorescence intensity (a.u.); under “TTGTTCCCTTTCTCTTCAATTACGCCATTGCCGTCTTGCCCGGAGTCACCTAGTGCAG”, 11000 fluorescence intensity (a.u.); under “TCACCTTGAGGACAACCAATTAACCGGTGCATTGCCACCTCGGAGTCACCTAGTGCAG”, 4020 fluorescence intensity (a.u.).
Under “TGTCCCCTATTTCACGTGACGTGACAACTGAATCAACGCGCGGAGTCACCTAGTGCAG” stands 5740 fluorescence intensity (a.u.); under “TAATAGTATAGTGACTATAGTCCACTACTAGCTCCAAATTCGGAGTCACCTAGTGCAG”, 20600 fluorescence intensity (a.u.); under “CCGGCCGCAGCAACAAGATTAGGAAGATAGAGTGATTCATCGGAGTCACCTAGTGCAG”, 17700 fluorescence intensity (a.u.).
Under “TCCCTTGTCGACACATGCGTGTCAGCTCCAGGTTTATAACCGGAGTCACCTAGTGCAG” stands 6370 fluorescence intensity (a.u.); under “CTTAGTGCCAAGCGGTCTGAGGTGTCATGGCTTTCACTCACGGAGTCACCTAGTGCAG”, 8740 fluorescence intensity (a.u.).
Consider “TGATTTGTGTTACCATGACGTCTGTCTATTTCCTAGTCATCGGAGTCACCTAGTGCAG”, for which the binding signal was 5000 fluorescence intensity (a.u.).
In the case of “CCTTCCCCTTCCCGGCGCGCGCATCGCATGTTCCCGCGACCGGAGTCACCTAGTGCAG” it was 9090 fluorescence intensity (a.u.); in that of “CCTCATCTGTATTTTGGTGACTGGGCTGACACATCAGCACCGGAGTCACCTAGTGCAG”, 25600 fluorescence intensity (a.u.).
Under “ACCGCATCACATCAAGCATCCACCAACCAACCCAACAACACGGAGTCACCTAGTGCAG” stands 3910 fluorescence intensity (a.u.); under “ATTATTATTTATTTTGTTTATCATTTGCTTTATTATCAAACGGAGTCACCTAGTGCAG”, 22200 fluorescence intensity (a.u.).
In the case of “TGGTCGCCCACAGAATTTCCACGTGTCTCACGGTCAGCCGCGGAGTCACCTAGTGCAG”, the binding signal is 17100 fluorescence intensity (a.u.).
